{"source": "PubChem BioAssay AID445", "about": "(National Center for Advancing Translational Sciences (NCATS), 2006)", "test": "IkB Signaling", "conditions": "ABC-DLBCL IkBa-CBG/CBR dual luciferase ratio (green luciferase fused to IkBa over red control in OCI-Ly3 lymphoma cells), 4 h", "summary_of_the_method": "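Curves were fitted separately to fusion (green), unfused (red) and ratio luminescence, then classed by r2, magnitude and activity. Cells: OCI-Ly3, 4 h compound plus doxycycline at 37C; 10 uM MG-132 defined full response.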", "key": {"[1]": {"conditions": "measured here: control luc red channel unless noted"}, "[2]": {"conditions": "measured here: IkB-luc green channel"}, "[3]": {"conditions": "measured here: control luc red channel"}}, "note": "Some of the results follow. The main result of the screen is listed elsewhere. These columns were measured beside it and carry no call. The list favours compounds with an active or inconclusive main result. The note in brackets gives the kind of curve behind each potency; many fits are weak.", "data": [{"compound": "CCOC(=O)C1CCN(c2nc3c(S(=O)(=O)c4ccc(Br)cc4)nnn3c3ccsc23)CC1", "values": [{"measurement": "AC50", "setting": "[1]", "value": "5.01 µM [falling, single point]"}]}, {"compound": "COc1ccc(CNC(=O)c2cc3c(-c4ccc(Cl)cc4)nn(C)c3s2)cc1", "values": [{"measurement": "AC50", "setting": "[1]", "value": "3.98 µM [falling, full curve]"}]}, {"compound": "COc1ccc(S(=O)(=O)N(CCc2ccccc2)CC(=O)NCc2ccccc2)cc1", "values": [{"measurement": "AC50", "setting": "[1]", "value": "12.6 µM [falling, partial curve]"}]}, {"compound": "Cn1c(=O)n(C)c2cc(NS(=O)(=O)c3ccc(F)cc3)c(NCc3ccccc3)cc21", "values": [{"measurement": "AC50", "setting": "[1]", "value": "20 µM [falling, partial curve]"}]}, {"compound": "OC(CN1c2ccccc2Sc2ccccc21)Cn1nnc2ccccc21", "note": "(stereo unspecified)", "values": [{"measurement": "AC50", "setting": "[2]", "value": "39.8 µM [falling, single point]"}, {"measurement": "AC50", "setting": "[3]", "value": "12.6 µM [falling, partial curve]"}]}, {"compound": "CCOC(=O)c1cccc(NC(=O)Cn2nc3c(cc2=O)CCCC3)c1", "values": [{"measurement": "AC50", "setting": "[1]", "value": "0.2 µM [falling, full curve]"}]}, {"compound": "CCOC(=O)c1c(S(=O)(=O)N2CCCC(C(=O)Nc3ccc(OCC)cc3)C2)c(C)n(C)c1C", "note": "(stereo unspecified)", "values": [{"measurement": "AC50", "setting": "[1]", "value": "39.8 µM [rising, single point]"}]}, {"compound": "CCC1Oc2ccccc2N(CC(=O)NCCN2CCc3ccccc3C2)C1=O", "note": "(stereo unspecified)", "values": [{"measurement": "AC50", "setting": "[1]", "value": "10 µM [falling, partial curve]"}]}, {"compound": "Cc1ccc(-c2cc(NC(=O)c3ccccc3Cl)on2)cc1", "values": [{"measurement": "AC50", "setting": "[1]", "value": "0.794 µM [falling, full curve]"}]}, {"compound": "O=C(Nc1nc2nc(-c3ccccc3)cc(-c3ccccc3)n2n1)c1ccco1", "values": [{"measurement": "AC50", "setting": "[1]", "value": "10 µM [falling, partial curve]"}]}, {"compound": "O=C(Nc1ccc(C(=O)N2CCN(c3ccc(F)cc3)CC2)cc1)c1nsc2ccccc12", "values": [{"measurement": "AC50", "setting": "[1]", "value": "0.398 µM [falling, full curve]"}]}, {"compound": "CC(C)C1C(C#N)=C(N)Oc2n[nH]c(-c3ccccc3)c21", "note": "(stereo unspecified)", "values": [{"measurement": "AC50", "setting": "[1]", "value": "3.16 µM [falling, full curve]"}]}, {"compound": "CCCCN(CCCC)c1ncnc2c1cnn2-c1cccc(C)c1", "values": [{"measurement": "AC50", "setting": "[1]", "value": "3.16 µM [rising, partial curve]"}]}, {"compound": "CCOC(=O)C1CCN(S(=O)(=O)c2cc(-c3onc(C)c3C)ccc2C)CC1", "values": [{"measurement": "AC50", "setting": "[1]", "value": "31.6 µM [falling, partial curve]"}]}, {"compound": "COc1ccc2[nH]cc(CCNc3ncnc4ccc(-c5ccc(C(=O)N(C)C)cc5)cc34)c2c1", "values": [{"measurement": "AC50", "setting": "[1]", "value": "3.98 µM [falling, single point] [measured here: IkB-luc green channel]"}]}, {"compound": "O=C(CCN1CCN(c2ccc(Cl)cc2)CC1)Nc1ccccc1F", "values": [{"measurement": "AC50", "setting": "[1]", "value": "794 nM [rising, partial curve, poor fit] [measured here: IkB-luc green channel]"}]}, {"compound": "CCc1ccccc1Nc1cc(C(=O)NCc2ccc(C)cc2)c2ccccc2n1", "values": [{"measurement": "AC50", "setting": "[1]", "value": "3.98 µM [falling, full curve]"}]}, {"compound": "CCOC(=O)N1CCN(C(=O)c2ccc3c(c2)N(Cc2ccccc2F)C(=O)c2ccccc2S3=O)CC1", "note": "(stereo unspecified)", "values": [{"measurement": "AC50", "setting": "[1]", "value": "15.8 µM [falling, partial curve]"}]}, {"compound": "O=C(c1c2c(nc3ccccc13)C(=O)N(C1CCCCC1)C2)N1CCN(c2ccc(F)cc2)CC1", "values": [{"measurement": "AC50", "setting": "[1]", "value": "10 µM [falling, partial curve]"}]}, {"compound": "CC(C)CCNC(=O)CN1C(=O)CCn2nc(-c3cn(C)c4ccccc34)cc21", "values": [{"measurement": "AC50", "setting": "[1]", "value": "2 µM [falling, partial curve]"}]}, {"compound": "CCOc1ccc(NC(=O)CSc2oc(-c3ccco3)nc2S(=O)(=O)c2ccc(C)cc2)cc1", "values": [{"measurement": "AC50", "setting": "[1]", "value": "6.31 µM [falling, partial curve]"}]}, {"compound": "CCCOc1ccc(/C=C/C(=O)Nc2sc(C)c(C)c2C(=O)OCC)cc1OC", "values": [{"measurement": "AC50", "setting": "[2]", "value": "31.6 µM [rising, partial curve]"}, {"measurement": "AC50", "setting": "[3]", "value": "25.1 µM [rising, partial curve]"}]}, {"compound": "CCOc1ccc(S(=O)(=O)NCCc2csc(-c3ccc(Cl)cc3)n2)cc1", "values": [{"measurement": "AC50", "setting": "[1]", "value": "12.6 µM [falling, partial curve]"}]}, {"compound": "COc1ccc(NC2=Nc3ccccc3CC2)cc1", "values": [{"measurement": "AC50", "setting": "[1]", "value": "20 µM [falling, single point]"}]}, {"compound": "CC(C)Cn1c(SCC(=O)NC(=O)NC2CCCC2)nc2ccccc21", "values": [{"measurement": "AC50", "setting": "[1]", "value": "25.1 µM [falling, partial curve]"}]}, {"compound": "COc1ccc(OCc2ccc(-c3nc(C#N)c(N4CCN(C)CC4)o3)o2)cc1", "values": [{"measurement": "AC50", "setting": "[1]", "value": "31.6 µM [falling, single point]"}]}, {"compound": "CCC(c1nnnn1Cc1ccco1)N(Cc1cc2cc(C)cc(C)c2[nH]c1=O)CC1CCCO1", "note": "(stereo unspecified)", "values": [{"measurement": "AC50", "setting": "[1]", "value": "15.8 µM [falling, partial curve]"}]}, {"compound": "Cc1ccc2c(CN3CCN(Cc4ccccc4Cl)CC3)cc(=O)oc2c1", "values": [{"measurement": "AC50", "setting": "[1]", "value": "31.6 µM [falling, single point]"}]}, {"compound": "COc1ccc(C2CC(=O)Nc3c2c(=O)nc2c(C)cccn32)cc1OC", "note": "(stereo unspecified)", "values": [{"measurement": "AC50", "setting": "[1]", "value": "0.00631 µM [falling, full curve, poor fit]"}]}, {"compound": "CCCCC1CCC(C(=O)N2CC(=O)Nc3ccc(F)cc3C2c2ccc(F)cc2)CC1", "note": "(stereo unspecified)", "values": [{"measurement": "AC50", "setting": "[1]", "value": "7.94 µM [falling, full curve, poor fit]"}]}, {"compound": "Cc1nc2sc(C(=O)N(C)Cc3ccccc3)c(NC(=O)c3ccccc3)c2c(C)c1Cl", "values": [{"measurement": "AC50", "setting": "[1]", "value": "6.31 µM [falling, partial curve]"}]}, {"compound": "CCOc1ccc(CNC(=O)c2ccc(Sc3ccc(Cl)cc3)c(NC(C)=O)c2)cc1", "values": [{"measurement": "AC50", "setting": "[1]", "value": "31.6 µM [falling, single point]"}]}, {"compound": "O=C(NCC1CCN(Cc2ccccc2F)CC1)Nc1ccc(F)c(Cl)c1", "values": [{"measurement": "AC50", "setting": "[1]", "value": "0.0631 µM [falling, full curve, poor fit]"}]}, {"compound": "CCCOc1ccc(C(=O)Nc2cc3c(cc2N2CCCCC2)n(C)c(=O)n3C)cc1", "values": [{"measurement": "AC50", "setting": "[2]", "value": "25.1 µM [rising, partial curve]"}, {"measurement": "AC50", "setting": "[3]", "value": "39.8 µM [falling, single point]"}]}, {"compound": "CC(C)c1ccc(N(CC(=O)O)S(=O)(=O)c2ccc3[nH]c(=O)c(=O)[nH]c3c2)cc1", "values": [{"measurement": "AC50", "setting": "[1]", "value": "0.631 µM [rising, full curve]"}]}, {"compound": "Cc1ccc(S(=O)(=O)Cc2nc(-c3ccc(C(=O)NCCCOC(C)C)cc3)oc2C)cc1", "values": [{"measurement": "AC50", "setting": "[1]", "value": "3.98 µM [falling, partial curve]"}]}, {"compound": "c1ccc(-c2ccc(-c3ccccn3)nn2)nc1", "values": [{"measurement": "AC50", "setting": "[1]", "value": "3.98 µM [falling, full curve]"}]}, {"compound": "CSc1ccc(CCNC(=O)CCCn2c(=O)c3cccn3c3ccccc32)cc1", "values": [{"measurement": "AC50", "setting": "[1]", "value": "6.31 µM [falling, partial curve]"}]}]}
